The values that follow come from article PMC11424591.

Protein sequences, listed by entry. Tags and fused reporters are not part of them.
UniProt Q99497: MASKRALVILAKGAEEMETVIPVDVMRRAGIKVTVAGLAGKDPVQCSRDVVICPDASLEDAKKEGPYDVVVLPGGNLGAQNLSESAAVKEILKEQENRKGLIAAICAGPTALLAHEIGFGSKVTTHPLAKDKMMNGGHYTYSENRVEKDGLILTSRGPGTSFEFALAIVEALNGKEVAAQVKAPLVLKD

This assay has as its target T1, EFCAB7 (human (endogenous in Hep3B)) (UniProt A8K855).
T1 sequence: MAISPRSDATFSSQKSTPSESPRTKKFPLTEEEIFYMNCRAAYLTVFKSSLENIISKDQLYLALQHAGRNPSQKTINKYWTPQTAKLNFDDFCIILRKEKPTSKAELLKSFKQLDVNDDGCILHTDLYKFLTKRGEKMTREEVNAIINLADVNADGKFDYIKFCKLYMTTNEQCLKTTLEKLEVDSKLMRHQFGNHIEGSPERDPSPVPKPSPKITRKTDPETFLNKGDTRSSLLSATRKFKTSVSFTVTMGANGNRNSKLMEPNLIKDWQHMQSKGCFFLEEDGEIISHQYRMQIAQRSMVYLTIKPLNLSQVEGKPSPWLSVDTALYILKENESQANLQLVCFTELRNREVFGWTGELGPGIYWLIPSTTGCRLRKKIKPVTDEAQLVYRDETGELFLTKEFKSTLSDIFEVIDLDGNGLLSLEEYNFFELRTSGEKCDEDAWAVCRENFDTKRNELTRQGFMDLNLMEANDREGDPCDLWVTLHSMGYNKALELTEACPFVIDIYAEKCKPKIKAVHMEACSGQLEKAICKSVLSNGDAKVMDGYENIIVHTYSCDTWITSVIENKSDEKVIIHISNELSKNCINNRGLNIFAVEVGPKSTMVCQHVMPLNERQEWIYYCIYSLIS
The experiment in a line: affinity purification with mass spectrometry; mass spectrometry of proteins interacting with EFCAB7 in HCC tumor cell lines; no method described.

Results are given in words; binding and its absence hold for the method and conditions named. Binding seen in cells or lysates may run through a third protein. A yes stands for co-enrichment or nearness to the bait. Other partners may have been found.

Take PARK7 (from UniProt Q99497 1-189): the binding result is “binds”.
